Assay results taken from publication PMC6309736.
Where a protein sequence is shown, tags need not be part of it.

Target: T1, QsrR (His6-QsrR) (UniProt Q92L17)
T1 sequence (looked up): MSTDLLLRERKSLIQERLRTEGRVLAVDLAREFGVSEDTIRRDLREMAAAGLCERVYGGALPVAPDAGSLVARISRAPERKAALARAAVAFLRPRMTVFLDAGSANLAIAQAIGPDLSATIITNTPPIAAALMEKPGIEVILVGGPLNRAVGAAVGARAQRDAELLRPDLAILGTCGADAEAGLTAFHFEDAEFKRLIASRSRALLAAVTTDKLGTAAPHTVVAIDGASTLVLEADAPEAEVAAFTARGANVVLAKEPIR
Assay: EMSA
Settings: shift at 3.3 uM His6-QsrR, 0.005 nM probe, competed by ~100-fold unlabeled pexpR; DIG Gel Shift Kit 2nd Generation (Roche), per manufacturer; 0.005 nM labeled probe; pH and temperature not stated; recombinant protein; residues 1-260; protein details: His6 (pET28a); label: DIG; probe letters rebuilt from the primers and the genome

Does “ATGCGGCCGCCCACCTTGCGTGCCGGCAAAGCCGCGGGTGACGGCCTTTGCGTTCTTCCCAAAAAACGCGGTAGACGGGGCGGATCAGCGAGAAGGATCATCCGATACCATGGGAGGGTTGGCGGGATGATTCATCGTTAGCTATCTTGATGCCTCGACTCCGAGTTTTTGCAGGTTTCCTGCAAGACCGGGCGTGATATGAAGAATTATCGCGGTTGCAACATGAATGGCTTCTGAACGGCGTATTCACATGGCCTGGCGGGTTGCGCGGCGCGTTTTTGATTTGAGGATGCTCTGAATTCCG (double strand) [pexpR (expR promoter, R1)]” bind?
Result: binds
